Source: the M2OR odorant receptor database
The entries are a selection whose mix differs from that of the whole data set. The calls were merged from several studies; some rest on single wells. The list shows a part of the results.

By UniProt entry, the sequences of proteins in these tests, tags left out. Chains listed by the source or under a name are the forms on record and can include a tag or linker.
UniProt Q7TR79, as listed by the source: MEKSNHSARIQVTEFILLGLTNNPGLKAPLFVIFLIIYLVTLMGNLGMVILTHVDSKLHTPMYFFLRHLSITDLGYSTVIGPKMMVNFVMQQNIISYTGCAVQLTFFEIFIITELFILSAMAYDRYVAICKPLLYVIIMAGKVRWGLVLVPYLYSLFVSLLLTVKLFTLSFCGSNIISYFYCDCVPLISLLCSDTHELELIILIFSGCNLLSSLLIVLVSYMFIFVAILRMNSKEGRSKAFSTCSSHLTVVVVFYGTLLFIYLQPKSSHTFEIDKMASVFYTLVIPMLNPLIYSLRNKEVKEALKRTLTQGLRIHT
UniProt Q7TRX0, as listed by the source: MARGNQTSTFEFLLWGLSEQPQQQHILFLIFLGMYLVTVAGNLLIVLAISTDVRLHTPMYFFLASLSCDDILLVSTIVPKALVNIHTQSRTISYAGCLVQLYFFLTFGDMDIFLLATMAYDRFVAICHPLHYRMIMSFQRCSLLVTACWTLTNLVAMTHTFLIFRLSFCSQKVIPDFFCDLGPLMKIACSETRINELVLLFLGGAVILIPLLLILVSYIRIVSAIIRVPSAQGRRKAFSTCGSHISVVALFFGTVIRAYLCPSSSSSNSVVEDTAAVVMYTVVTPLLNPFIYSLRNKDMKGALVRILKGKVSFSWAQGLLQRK
UniProt Q8VF43, as listed by the source: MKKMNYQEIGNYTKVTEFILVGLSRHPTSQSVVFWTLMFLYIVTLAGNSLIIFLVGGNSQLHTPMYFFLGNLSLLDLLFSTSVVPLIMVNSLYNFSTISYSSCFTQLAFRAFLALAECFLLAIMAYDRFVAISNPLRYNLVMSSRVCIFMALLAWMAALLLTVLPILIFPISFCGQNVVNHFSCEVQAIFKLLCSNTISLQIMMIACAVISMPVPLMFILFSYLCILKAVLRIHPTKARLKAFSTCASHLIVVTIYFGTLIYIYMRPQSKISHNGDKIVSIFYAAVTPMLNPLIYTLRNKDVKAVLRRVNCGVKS
UniProt Q8VF52, as listed by the source: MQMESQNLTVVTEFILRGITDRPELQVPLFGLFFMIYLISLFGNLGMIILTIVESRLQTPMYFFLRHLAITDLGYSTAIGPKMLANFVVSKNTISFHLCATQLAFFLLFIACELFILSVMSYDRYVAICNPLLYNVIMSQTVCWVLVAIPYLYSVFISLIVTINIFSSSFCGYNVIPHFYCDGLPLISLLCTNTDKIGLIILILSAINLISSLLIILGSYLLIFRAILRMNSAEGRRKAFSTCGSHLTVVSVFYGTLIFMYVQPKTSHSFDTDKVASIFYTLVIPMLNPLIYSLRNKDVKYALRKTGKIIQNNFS
UniProt Q8VFM8, as listed by the source: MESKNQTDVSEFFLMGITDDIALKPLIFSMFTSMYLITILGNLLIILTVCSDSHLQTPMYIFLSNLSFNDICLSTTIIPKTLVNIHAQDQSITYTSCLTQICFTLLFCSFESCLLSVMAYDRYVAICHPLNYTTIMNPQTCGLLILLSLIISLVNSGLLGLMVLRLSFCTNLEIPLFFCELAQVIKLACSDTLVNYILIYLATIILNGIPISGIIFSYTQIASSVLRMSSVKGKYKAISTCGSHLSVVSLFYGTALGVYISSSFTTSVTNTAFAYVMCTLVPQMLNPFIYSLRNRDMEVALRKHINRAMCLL
UniProt Q8VFP5, as listed by the source: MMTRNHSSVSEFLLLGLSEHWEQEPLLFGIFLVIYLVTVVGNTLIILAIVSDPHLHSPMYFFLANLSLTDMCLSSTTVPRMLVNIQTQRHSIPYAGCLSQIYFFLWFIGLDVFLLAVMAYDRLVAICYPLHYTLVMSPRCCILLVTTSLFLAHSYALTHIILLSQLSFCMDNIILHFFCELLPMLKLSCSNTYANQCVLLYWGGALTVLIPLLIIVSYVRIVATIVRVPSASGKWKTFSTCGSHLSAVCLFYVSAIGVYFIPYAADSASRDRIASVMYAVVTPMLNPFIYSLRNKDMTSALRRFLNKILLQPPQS
UniProt Q8VG01, as listed by the source: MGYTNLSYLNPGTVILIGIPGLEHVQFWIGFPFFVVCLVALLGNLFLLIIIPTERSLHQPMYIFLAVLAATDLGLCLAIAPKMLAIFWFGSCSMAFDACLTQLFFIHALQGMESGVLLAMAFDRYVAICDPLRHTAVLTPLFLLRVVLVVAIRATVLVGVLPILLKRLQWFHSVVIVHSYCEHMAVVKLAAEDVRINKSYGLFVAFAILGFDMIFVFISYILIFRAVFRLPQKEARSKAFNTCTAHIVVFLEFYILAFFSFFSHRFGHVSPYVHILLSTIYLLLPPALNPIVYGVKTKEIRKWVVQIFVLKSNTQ
UniProt Q8VG27, as listed by the source: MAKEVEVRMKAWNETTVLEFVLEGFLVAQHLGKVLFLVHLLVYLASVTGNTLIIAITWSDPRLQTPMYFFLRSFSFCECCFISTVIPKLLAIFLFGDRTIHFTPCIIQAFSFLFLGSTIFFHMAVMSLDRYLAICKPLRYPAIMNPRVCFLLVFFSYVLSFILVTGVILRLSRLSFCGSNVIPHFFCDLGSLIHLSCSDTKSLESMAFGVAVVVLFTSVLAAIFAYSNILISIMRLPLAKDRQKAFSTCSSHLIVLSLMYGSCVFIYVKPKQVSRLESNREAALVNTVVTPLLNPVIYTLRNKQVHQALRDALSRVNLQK
UniProt Q8VG53, as listed by the source: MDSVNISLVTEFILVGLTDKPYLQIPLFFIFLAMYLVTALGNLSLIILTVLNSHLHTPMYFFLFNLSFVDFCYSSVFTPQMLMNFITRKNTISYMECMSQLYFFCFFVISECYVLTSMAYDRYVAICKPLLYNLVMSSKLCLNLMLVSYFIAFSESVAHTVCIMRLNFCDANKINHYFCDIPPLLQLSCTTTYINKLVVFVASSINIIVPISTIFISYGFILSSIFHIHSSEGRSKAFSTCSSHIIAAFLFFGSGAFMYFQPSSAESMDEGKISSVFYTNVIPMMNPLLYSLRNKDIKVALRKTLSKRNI
UniProt Q8VG64, as listed by the source: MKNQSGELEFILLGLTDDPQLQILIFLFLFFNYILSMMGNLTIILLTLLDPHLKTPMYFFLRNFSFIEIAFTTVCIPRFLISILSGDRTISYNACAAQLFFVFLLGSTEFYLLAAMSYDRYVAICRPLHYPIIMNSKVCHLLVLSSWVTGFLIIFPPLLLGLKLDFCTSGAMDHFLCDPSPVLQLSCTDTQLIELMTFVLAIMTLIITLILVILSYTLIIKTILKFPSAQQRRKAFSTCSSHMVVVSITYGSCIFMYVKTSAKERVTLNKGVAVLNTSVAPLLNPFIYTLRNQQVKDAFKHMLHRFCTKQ
UniProt Q8VGB9, as listed by the source: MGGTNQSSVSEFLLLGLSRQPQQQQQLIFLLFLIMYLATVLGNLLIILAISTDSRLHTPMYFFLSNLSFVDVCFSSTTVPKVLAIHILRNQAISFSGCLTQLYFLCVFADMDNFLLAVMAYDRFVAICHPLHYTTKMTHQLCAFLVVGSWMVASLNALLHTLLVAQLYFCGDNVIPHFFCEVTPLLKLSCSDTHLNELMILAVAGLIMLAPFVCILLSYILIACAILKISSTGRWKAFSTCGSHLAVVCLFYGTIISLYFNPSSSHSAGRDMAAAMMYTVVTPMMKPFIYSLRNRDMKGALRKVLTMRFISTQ
UniProt Q8VGC6, as listed by the source: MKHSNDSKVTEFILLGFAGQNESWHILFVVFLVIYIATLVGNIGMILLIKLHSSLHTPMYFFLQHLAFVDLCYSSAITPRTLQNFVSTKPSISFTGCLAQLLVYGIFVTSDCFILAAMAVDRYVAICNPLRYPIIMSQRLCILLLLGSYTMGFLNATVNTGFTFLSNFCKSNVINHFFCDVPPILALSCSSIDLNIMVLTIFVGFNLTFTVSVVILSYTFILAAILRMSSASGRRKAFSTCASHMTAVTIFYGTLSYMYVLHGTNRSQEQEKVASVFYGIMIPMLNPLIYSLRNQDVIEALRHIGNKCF
UniProt Q8VGJ3, as listed by the source: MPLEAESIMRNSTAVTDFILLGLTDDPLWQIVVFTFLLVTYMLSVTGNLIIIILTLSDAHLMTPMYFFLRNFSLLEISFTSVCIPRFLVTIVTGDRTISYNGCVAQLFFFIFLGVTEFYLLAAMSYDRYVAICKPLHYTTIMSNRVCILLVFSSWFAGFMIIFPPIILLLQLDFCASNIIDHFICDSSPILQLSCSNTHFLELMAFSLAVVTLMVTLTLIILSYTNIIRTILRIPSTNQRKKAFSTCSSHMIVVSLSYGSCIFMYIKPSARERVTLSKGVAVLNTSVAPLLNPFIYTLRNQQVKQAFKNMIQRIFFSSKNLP
UniProt Q8VGL0, as listed by the source: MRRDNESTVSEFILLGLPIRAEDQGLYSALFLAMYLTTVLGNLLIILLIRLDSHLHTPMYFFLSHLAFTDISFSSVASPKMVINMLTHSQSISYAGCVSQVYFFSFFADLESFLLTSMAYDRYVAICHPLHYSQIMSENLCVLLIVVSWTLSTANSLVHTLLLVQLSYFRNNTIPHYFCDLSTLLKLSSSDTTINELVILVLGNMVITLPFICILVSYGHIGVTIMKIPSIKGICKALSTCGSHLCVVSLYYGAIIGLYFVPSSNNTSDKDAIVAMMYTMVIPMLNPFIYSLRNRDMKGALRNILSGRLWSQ
UniProt Q8VGU3, as listed by the source: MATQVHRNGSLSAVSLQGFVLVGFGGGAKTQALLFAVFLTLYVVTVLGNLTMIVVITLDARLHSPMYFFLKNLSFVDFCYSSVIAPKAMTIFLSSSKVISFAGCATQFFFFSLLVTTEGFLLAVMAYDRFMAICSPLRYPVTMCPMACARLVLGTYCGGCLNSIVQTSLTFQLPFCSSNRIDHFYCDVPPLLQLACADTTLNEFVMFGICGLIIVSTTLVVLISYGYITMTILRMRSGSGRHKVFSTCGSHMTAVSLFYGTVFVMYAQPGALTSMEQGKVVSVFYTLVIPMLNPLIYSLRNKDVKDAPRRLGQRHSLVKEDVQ
UniProt Q8VGV7, as listed by the source: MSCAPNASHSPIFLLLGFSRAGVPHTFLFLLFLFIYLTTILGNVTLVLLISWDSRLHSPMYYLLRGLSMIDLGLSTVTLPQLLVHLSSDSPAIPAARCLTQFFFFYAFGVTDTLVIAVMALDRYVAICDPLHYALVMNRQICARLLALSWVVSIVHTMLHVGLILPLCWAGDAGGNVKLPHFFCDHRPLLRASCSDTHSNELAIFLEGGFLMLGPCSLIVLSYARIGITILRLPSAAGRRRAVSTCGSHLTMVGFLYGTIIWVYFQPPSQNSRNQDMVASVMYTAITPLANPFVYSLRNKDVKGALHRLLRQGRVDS
UniProt Q8VGX3, as listed by the source: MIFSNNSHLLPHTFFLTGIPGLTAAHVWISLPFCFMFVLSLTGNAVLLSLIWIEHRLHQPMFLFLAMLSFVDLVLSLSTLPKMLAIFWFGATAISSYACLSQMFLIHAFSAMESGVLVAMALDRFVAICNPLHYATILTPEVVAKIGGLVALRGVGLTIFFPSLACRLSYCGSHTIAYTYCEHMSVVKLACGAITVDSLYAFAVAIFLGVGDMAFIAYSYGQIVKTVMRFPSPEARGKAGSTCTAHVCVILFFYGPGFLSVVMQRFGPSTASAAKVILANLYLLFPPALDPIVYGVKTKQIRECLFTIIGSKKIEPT
UniProt Q8VGX5, as listed by the source: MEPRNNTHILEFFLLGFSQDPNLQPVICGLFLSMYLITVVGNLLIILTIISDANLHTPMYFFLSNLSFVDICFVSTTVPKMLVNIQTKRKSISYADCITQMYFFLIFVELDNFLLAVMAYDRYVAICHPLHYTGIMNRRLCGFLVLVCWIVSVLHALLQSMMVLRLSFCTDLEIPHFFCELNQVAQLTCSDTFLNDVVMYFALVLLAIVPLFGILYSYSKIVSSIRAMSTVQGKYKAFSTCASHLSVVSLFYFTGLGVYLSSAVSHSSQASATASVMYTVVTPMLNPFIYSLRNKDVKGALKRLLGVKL
UniProt Q8VGZ2, as listed by the source: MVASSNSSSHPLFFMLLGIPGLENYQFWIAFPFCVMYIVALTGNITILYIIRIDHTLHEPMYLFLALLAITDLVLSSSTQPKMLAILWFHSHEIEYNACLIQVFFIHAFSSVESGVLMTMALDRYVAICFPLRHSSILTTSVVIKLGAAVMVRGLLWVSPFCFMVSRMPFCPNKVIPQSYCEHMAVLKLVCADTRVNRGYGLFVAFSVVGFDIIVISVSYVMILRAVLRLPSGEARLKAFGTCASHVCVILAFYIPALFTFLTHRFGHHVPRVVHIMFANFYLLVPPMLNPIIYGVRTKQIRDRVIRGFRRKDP
UniProt Q8VGZ7, as listed by the source: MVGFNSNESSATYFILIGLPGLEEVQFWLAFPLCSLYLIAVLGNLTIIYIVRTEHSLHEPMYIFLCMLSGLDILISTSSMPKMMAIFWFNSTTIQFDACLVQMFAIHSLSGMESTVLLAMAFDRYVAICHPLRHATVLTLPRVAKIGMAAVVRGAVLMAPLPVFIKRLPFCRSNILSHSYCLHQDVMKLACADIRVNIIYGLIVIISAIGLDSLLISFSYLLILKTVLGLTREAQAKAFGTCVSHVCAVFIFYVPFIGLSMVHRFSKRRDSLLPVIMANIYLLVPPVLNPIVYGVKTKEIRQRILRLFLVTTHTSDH

Assays:
Settings in all cases: stereoisomer not certain
[1] = biological target: UniProt Q7TR79
Method in brief: (§1)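 Whether a receptor–molecule pair is responsive (active) rests on the original authors' judgment that its measured signal was statistically different from baseline. Pairs without that judgment are non-responsive (inactive). Sources used varied assay methods, commonly transient luciferase assays in mammalian cell lines.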

[2] = biological target: UniProt Q7TRX0
Method in brief: as §1

[3] = biological target: UniProt Q8VF43
Method in brief: as §1

[4] = biological target: UniProt Q8VF52
Method in brief: as §1

[5] = biological target: UniProt Q8VFM8
Method in brief: as §1

[6] = biological target: UniProt Q8VFP5
Method in brief: as §1

[7] = biological target: UniProt Q8VG01
Method in brief: as §1

[8] = biological target: UniProt Q8VG27
Method in brief: as §1

[9] = biological target: UniProt Q8VG53
Method in brief: as §1

[10] = biological target: UniProt Q8VG64
Method in brief: as §1

[11] = biological target: UniProt Q8VGB9
Method in brief: as §1

[12] = biological target: UniProt Q8VGC6
Method in brief: as §1

[13] = biological target: UniProt Q8VGJ3
Method in brief: as §1

[14] = biological target: UniProt Q8VGL0
Method in brief: as §1

[15] = biological target: UniProt Q8VGU3
Method in brief: as §1

[16] = biological target: UniProt Q8VGV7
Method in brief: as §1

[17] = biological target: UniProt Q8VGX3
Method in brief: as §1

[18] = biological target: UniProt Q8VGX5
Method in brief: as §1

[19] = biological target: UniProt Q8VGZ2
Method in brief: as §1

[20] = biological target: UniProt Q8VGZ7
Method in brief: as §1

Measured: odorant receptor agonist call;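 note: active if original authors judged signal statistically different from baseline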

CCOc1cc(C=O)ccc1O
inactive: [1] | [2] | [3] | [4] | [5] | [6] | [7] | [8] | [9] | [10] | [11] | [12] | [13] | [14] | [15] | [16] | [17] | [18] | [19] | [20]

CCC(C)=O
inactive: [1] | [2] | [3] | [4] | [5] | [6] | [7] | [8] | [9] | [10] | [11] | [12] | [13] | [14] | [15] | [16] | [17] | [18] | [19] | [20]
